Results are given in words; binding and its absence hold for the method and conditions named. A result given as binding can be weak or reduced; the word gives no strength.
Molecular target: MBP-LgFKF1-Kelch (Kelch repeat domain of LgFKF1, residues 300-630) (Luculia gratissima)
Assay: pull-down; 200 μg of the held MBP or GST fusion incubated with 200 μg of the His-SUMO or GST fusion at 4°C overnight; washed three times with PBS; blots with anti-MBP, anti-GST or anti-His; both purified

binding: binds
Substance: 10 × His-SUMO-LgPRR7-PR (PR domain of LgPRR7, residues 97-556) (from UniProt A0A8K1UAW4) (domain or fragment)

Reference: paper PMC12227992
